Data reported in US12171870B2, “Contact lens packaging solutions” (ALCON INC., priority 2020, dated 2024).

Test: DMPC loading test: lens autoclaved in packaging solution, rinsed, extracted, DMPC determined by HPLC

SMILES: CCCCCCCCCCCCCC(=O)OC[C@H](COP(=O)([O-])OCC[N+](C)(C)C)OC(=O)CCCCCCCCCCCCC [DMPC, Dimyristoylphosphatidylcholine]
- DMPC loading in the contact lens (DMPC concentration in the packaging solution 0.1 mg/ml): 25 μg/lens
- DMPC loading in the contact lens (DMPC concentration in the packaging solution 0.5 mg/ml): 55 mg/mL
- DMPC loaded into contact lens (during autoclave in packing saline with DMPC nanoparticles (0.1-1 mg/mL)): 25-65 ug/lens
